Laboratory results published in publication PMC5853894.
No constants are given. Whether binding was seen depends on the method and setting. Binding seen in cells or lysates may run through a third protein. Some binding calls cover weakened binding; strength is not graded here. Sequences can lack the tags named with a protein. Blank lines part the entries; values can stand above or below the binder they belong to.

Experiments:
[1] = target: T1, small rubber particle protein (SRPP) fused to GFP (Hevea brasiliensis) (UniProt O82803); test: co-IP; N. benthamiana leaves co-infiltrated with pairs of constructs, homogenised after 3 d in 150 mM Tris-HCl pH 7.5, 150 mM NaCl, 1.5% Triton X-100; GFPTrap or RFPTrap beads, 2 h at 4 °C; immunoblot with anti-GFP or anti-RFP; done in both directions
T1 sequence: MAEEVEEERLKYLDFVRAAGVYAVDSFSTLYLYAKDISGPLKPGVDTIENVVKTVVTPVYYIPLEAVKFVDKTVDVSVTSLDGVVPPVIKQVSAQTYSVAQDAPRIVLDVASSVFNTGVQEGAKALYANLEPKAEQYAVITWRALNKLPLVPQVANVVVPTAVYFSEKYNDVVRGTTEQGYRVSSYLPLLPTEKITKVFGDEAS

[2] = target: T2, rubber elongation factor (REF) fused to mCherry (Hevea brasiliensis) (UniProt P15252); test: as above
T2 sequence: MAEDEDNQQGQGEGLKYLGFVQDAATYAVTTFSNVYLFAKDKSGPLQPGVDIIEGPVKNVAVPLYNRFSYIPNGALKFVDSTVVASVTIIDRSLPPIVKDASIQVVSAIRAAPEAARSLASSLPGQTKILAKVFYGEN

binding [1]: binds
B1: rubber elongation factor (REF) fused to mCherry (protein, UniProt P15252 1-138)
chain: T2 sequence

binding [1]: no binding
B2: cis-prenyltransferase CPT6 fused to mCherry (enzyme, UniProt Q8W3U4 1-284)
chain: MELYNGERPSVFRLLGKYMRKGLYSILTQGPIPTHIAFILDGNGRFAKKHKLPEGGGHKAGFLALLNVLTYCYELGVKYATIYAFSIDNFRRKPHEVQYVMNLMLEKIEGMIMEESIINAYDICVRFVGNLKLLDEPLKTAADKIMRATAKNSKFVLLLAVCYTSTDEIVHAVEESSKDKLKSDEICNDGNGDCVIKIEEMEPYSEIKLVELERNTYINPYPDVLIRTSGETRLSNYLLWQTTNCILYSPHALWPEIGLRHVVWAVINCQRHYSYLEKHKEYLK

binding [2]: no binding
B3: cis-prenyltransferase CPT6, fluorescent protein fusion tested against REF (enzyme, UniProt Q8W3U4 1-284)
chain: B2 chain
